From paper PMC12385072
Results are given in words; binding and its absence hold for the method and conditions named. Some binding calls cover weakened binding; strength is not graded here.

Molecular target: T1, RIPSYR peptide (TARPγ2-derived, 225-RIPSYR-230)
T1 sequence (peptide): RIPSYR
Assay: pull-down; RIPSYR covalently coupled (EDC/NHS) to carboxy magnetic beads, uncoupled beads as control; recombinant Arc N-lobe added, 2 h at 4 °C; washed with 50 mM Tris Cl, 300 mM NaCl, pH 7.4; eluted with 2% SDS; detected by Western blot; both purified

binding: binds
B1: Arc N-lobe domain (208-278), recombinant (domain or fragment, UniProt Q63053 208-278)
chain: GVDTQIFEDPREFLSHLEEYLRQVGGSEEYWLSQIQNHMNGPAKKWWEFKQGSVKNWVEFKKEFLQYSEGT
